Results from patent publication US20020103136A1 (priority 1998, published 2002).
One purity is given for all peptides; the source may state it once.

Columns and labels:
[1] = general procedure: peptide synthesis; Fmoc-Gln(Trt)-Wang resin; conditions: whole synthesis, 214 nm, scale 0.5 mmol, acetate salt
[2] = general procedure: peptide synthesis; Fmoc-Ser(tBu)-Wang resin; conditions: whole synthesis, 214 nm, scale 0.5 mmol, acetate salt
peptide synthesis = conditions: coupling step, 214 nm, acetate salt

Substance	final HPLC purity (peptide synthesis)	also measured
N-Acetyl-4-trans-L-Hyp-Ser-Ser-Chg-Gln-OH		final HPLC purity [1]: 99%
N-Acetyl-Ser-Chg-Gln-Ser-Ser-OH		final HPLC purity [2]: 99%
N-Acetyl -Ser-Chg-Gln-Ser-Ser-Pro-HCAP amine	99%	
N-Acetyl-4-trans-L-Hyp-Ser-Ser-Chg-Gln-Ser-HCAP amine	99%	
